Our source for the cell number change and AC50 values is PubChem BioAssay AID2685 (National Center for Advancing Translational Sciences (NCATS), 2010).

This is one part of the list. The main result of the screen is listed elsewhere. These columns were measured beside it and carry no call. The list favours compounds with an active or inconclusive main result. Words in brackets tell the shape of the fitted curve; partial curves, single points and poor fits give uncertain potencies.

A short description of the assay: qHTS Assay for Lipid Storage Modulators in Drosophila S3 Cells.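 On cell number change: cells counted by Cell Tracker Red CMTPX staining in the red channel.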 The note with it: BODIPY lipid droplet fluorescence, 18-24 h; for cell number change: measured here: cell count max response, cells fed with added oleic acid. Put shortly:
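Laser-scanning cytometry quantifies lipid droplet accumulation (500–530 nm total intensity; droplet/cell object ratio) in oleic acid-fed (400 uM added) Drosophila S3 cells treated with a concentration series. 20 uM Triacsin C defined 100% inhibition.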

The mark [1] stands for this setting: measured here: lipid fluorescence (Fed channel) AC50, cells fed with added oleic acid.
[2] abbreviates: measured here: cell number channel AC50, cells fed with added oleic acid.

`CCCCn1c(N)c(N(CC)C(=O)c2cccc(F)c2)c(=O)[nH]c1=O`: the cell number change was -0.84%. For the same compound, under setting [1], the AC50 was 0.366 µM [rising, full curve]. On to `COC(=O)C1(C)NC(c2ccccc2C)C2C(=O)N(c3ccccc3)C(=O)C21` (stereo not drawn), for which the cell number change was 12.3%. Besides, the AC50 under setting [1] is 6.51 µM [falling, single point].

For `O=C(COC(=O)c1ccccn1)Nc1ccccc1OC(F)F`, the cell number change worked out at 14.9%. Also, the AC50 under setting [1] is 23.1 µM [rising, single point].

Turning to `CC(C)Oc1ccc(/C=N/NC(=O)c2nnn(-c3nonc3N)c2CN(C)c2ccccc2)cc1`, the cell number change amounted to 41%. Also, the half-maximal activity concentration (AC50) under setting [2] is 7.31 µM [rising, single point]. For the same compound, the AC50 under setting [1] is 29.1 µM [falling, single point]. Turning to `CCSc1ccc2nnc(-c3cccs3)n2n1`, the cell number change is -7.52%. Moreover, the AC50 under setting [2] is 0.00411 µM [falling, full curve, poor fit]. In the case of `CC(NC(=O)c1ccc(F)cc1F)C1CC2CCC1C2` (stereo not drawn), the cell number change was -7.98%. Further, the AC50 under setting [1] is 4.11 µM [falling, full curve, poor fit]. For `COc1cc(OC)nc(Oc2cccc(C(F)(F)F)c2)n1`, the cell number change came to 7.8%. Moreover, the AC50 under setting [1] is 14.6 µM [rising, single point]. Turning to `O=C(Nc1ccccc1N1CCCCC1)c1cccs1`, the AC50 by setting is: under setting [2], 4.11 µM [rising, partial curve]; under setting [1], 6.51 µM [rising, partial curve]. Consider `CCc1noc(C)c1C(=O)N1CCN(S(=O)(=O)c2ccc(Cl)cc2)CC1`, for which the cell number change stood at 4.23%. The AC50 under setting [1] is 6.51 µM [rising, single point].

For the compound `CCn1c(CC(=O)Nc2ccccc2F)nnc1SCC(=O)NC1CCCC1`, the cell number change is -7.89%. With `Cn1c(N)c(C(=O)c2ccccc2)c(=O)n(C)c1=O`, the cell number change was determined as 21.7%. Also, the AC50 under setting [1] was 6.51 µM [falling, single point]. With `COc1ccc(NC2CCCN(C(=O)CN3CCOC3=O)C2)cc1` (stereo not drawn), the cell number change is -15.1%. In addition, the half-maximal activity concentration (AC50) under setting [1] is 0.58 µM [rising, single point].

Regarding `C=C1C[C@H](O)[C@@H]2[C@H](OC(=O)[C@H]2C)[C@H]2[C@H](C)[C@@H](O)C[C@@H]12`, the cell number change was 10.2%. In addition, under setting [1], the AC50 is 1.46 µM [falling, full curve]. With `Nc1nc[nH]c(=O)c1N=Cc1ccccc1`, the cell number change is -49.5%. Further, the AC50 under setting [2] is 29.1 µM [falling, single point]. Besides, the AC50 under setting [1] was 29.1 µM [falling, single point]. With `CC/C(=N\NC(=O)c1ccoc1C)c1ccc(C)o1`, the cell number change stood at 8.28%. The AC50 under setting [2] was 2.31 µM [rising, partial curve]. The AC50 under setting [1] is 2.06 µM [rising, partial curve, poor fit]. `COc1ccc(C(=O)N2CCCC2)cc1S(=O)(=O)N1CCC(C)CC1`: the AC50 under setting [1] is 0.82 µM [falling, full curve, poor fit]. In the case of `O=C(c1cc(F)c(F)cc1Cl)N1CCN(CCc2ccccc2)CC1`, the cell number change was 11.7%. Moreover, the AC50 under setting [1] is 6.51 µM [rising, single point]. `COc1ccccc1N1CCN(C(=O)C(C)N(c2ccc(C)cc2)S(C)(=O)=O)CC1` (stereo not drawn): the cell number change came out at 11.4%. Moreover, the AC50 under setting [1] was 9.2 µM [falling, partial curve, poor fit]. As to `N/C(=N\OC(=O)CCCOc1ccccc1)c1ccc(Br)cc1`, the cell number change was 42.7%. In addition, the AC50 under setting [2] was 14.6 µM [rising, single point]. Turning to `O=C1CC(NS(=O)(=O)c2cccnc2)CN1c1ccc(Cl)cc1` (stereo not drawn), the cell number change was determined as 35.9%. For the same compound, the AC50 under setting [2] is 1.3 µM [rising, full curve]. Under setting [1], the AC50 is 1.84 µM [rising, full curve]. `Cc1ccc(C(=O)N2CCCN(c3nc4cc5c(cc4cc3C#N)OCO5)CC2)cc1`: the cell number change stood at 17.8%. Further, the AC50 under setting [1] is 0.58 µM [rising, single point].

In the case of `COc1cccc(CNC(=O)CN2C(=O)CCSc3ccc(S(=O)(=O)N4CCCC4)cc32)c1`, the cell number change is -3.23%. Moreover, under setting [1], the AC50 is 25.9 µM [rising, single point]. With `CCOc1ccc(OCC)c(NC(=O)CN(c2ccc(OC)cc2)S(=O)(=O)c2c(C)noc2C)c1`, the cell number change is -13.9%. Moreover, the AC50 under setting [1] was 23.1 µM [rising, single point].

For `COc1cc(OC)c(C2CC(=O)N3CN(C)CSC3=C2C#N)cc1OC` (stereo not drawn), the cell number change worked out at 22.8%. Besides, the AC50 under setting [1] was 2.06 µM [rising, partial curve]. Regarding `Cc1ccc(/C=C/C(=O)O)cc1S(=O)(=O)N1CCc2ccccc21`, the cell number change was -18.4%. Besides, the AC50 under setting [2] is 0.00651 µM [falling, full curve, poor fit]. For `Cn1cc(S(=O)(=O)N2CCOCC2)cc1C(=O)NCc1ccccc1Cl`, the cell number change was determined as 19%.

As to `COC1=C(N)C(=O)c2nc(-c3nc(C(=O)O)c(C)c(-c4ccc(OC)c(OC)c4O)c3N)ccc2C1=O`, the cell number change is -59.8%. Also, the AC50 under setting [2] was 29.1 µM [falling, single point]. Besides, the AC50 under setting [1] was 2.06 µM [falling, full curve, poor fit].

For the compound `S=C1NC2(CCCCC2)N=C1c1ccccc1`, the cell number change was -3.98%. The AC50 under setting [1] is 0.164 µM [rising, partial curve, poor fit].

As to `COc1ccc(CNCc2cccc(Oc3ccccc3)c2)cc1`, the cell number change was -72.2%. Besides, under setting [2], the AC50 is 18.4 µM [falling, single point]. Besides, the AC50 under setting [1] was 18.4 µM [falling, single point]. Regarding `O=C(Nc1cccc(Cl)c1)N1CCCC1`, the cell number change was found to be 10.1%. On the same count and under the same terms, the value for `COc1cccc(CC(Cc2nc3ccccc3[nH]2)c2nc3ccccc3[nH]2)c1` (stereo not drawn) was -24.6%. `C=CCN1C(=O)/C(=C/C(=O)OC)S/C1=N\NC(=O)c1ccccc1`: the cell number change is -37.9%. In addition, the AC50 under setting [2] is 29.1 µM [falling, single point]. For the same compound, the AC50 under setting [1] is 29.1 µM [falling, single point]. Regarding `COc1ccc(NC(=O)CSc2nc(C(C)C)nc3c2c(=O)n(C)c(=O)n3C)c(OC)c1`, the cell number change is -0.348%. Besides, the AC50 under setting [1] is 2.06 µM [falling, partial curve, poor fit]. `CSc1ccc(-c2cc(=O)c3ccccc3o2)cc1`: under setting [1], the AC50 is 23.1 µM [rising, single point]. Turning to `Cc1cc(CN2CCN(CC(=O)Nc3cc(C(F)(F)F)ccc3-n3cncn3)CC2)no1`, the cell number change was -0.275%. For the same compound, the AC50 under setting [1] is 0.092 µM [falling, full curve, poor fit]. In the case of `Cc1ccc(N2CCN(S(=O)(=O)c3ccc(-n4cnnn4)cc3)CC2)c(C)c1`, under setting [1], the AC50 is 0.366 µM [rising, full curve, poor fit]. As to `C[C@@H](NC(=O)c1nc[nH]c1C(=O)NCc1ccccc1)c1ccccc1`, the cell number change was 4.36%. The AC50 under setting [2] is 0.116 µM [falling, full curve, poor fit]. Under setting [1], the AC50 is 4.61 µM [falling, partial curve, poor fit]. As to `CC1CCN(S(=O)(=O)c2ccc(NC(=O)c3ccco3)cc2)CC1`, under setting [1], the AC50 was 29.1 µM [falling, single point].

`Cc1ccnc(NC(c2ccsc2)c2ccc3ccc(C)nc3c2O)c1` (stereo not drawn): the cell number change was -0.919%. Further, the AC50 under setting [1] was 0.82 µM [falling, single point]. Regarding `COc1ccc(CC2=CC(=O)c3ccccc3C2=O)cc1`, the cell number change was -58.1%. Also, under setting [2], the AC50 is 18.4 µM [falling, partial curve]. The AC50 under setting [1] is 14.6 µM [falling, partial curve].

Regarding `O=c1[nH]c(=O)n([C@H]2C[C@H](O)[C@@H](CO)O2)cc1Br`, the cell number change was 20.8%. Also, the AC50 under setting [1] was 0.206 µM [rising, full curve]. Regarding `CC(=O)Nc1cc(NC(C)=O)cc(C(=O)OC(C)C(=O)Nc2ccc(S(=O)(=O)N3CCCC3)cc2)c1` (stereo not drawn), under setting [1], the AC50 was 29.1 µM [rising, single point]. For `CCOC(=O)c1cccc(NC(=O)CCn2nnc3ccccc32)c1`, the cell number change was -9.45%. Under setting [1], the AC50 is 25.9 µM [rising, single point]. `NC(=O)Nc1ccc(C(=O)OCC(=O)Nc2ccc([N+](=O)[O-])cc2C(F)(F)F)cc1`: the cell number change was -19%. Further, the AC50 under setting [2] is 3.26 µM [falling, single point]. Further, the AC50 under setting [1] is 29.1 µM [falling, single point]. With `Cc1nc(SCC(=O)Nc2nc3ccccc3s2)c(C#N)c(C)c1C`, the cell number change is -69.9%. For the same compound, the AC50 under setting [2] is 29.1 µM [falling, single point]. As for `CSc1ccccc1NC(=O)CN(C)C(C)C(=O)NC(=O)NC1CCCCC1` (stereo not drawn), the cell number change turned out to be 13.7%.

As for `Cn1c(=O)c2c(SCC(=O)Nc3ccccc3F)nc(C3CC3)nc2n(C)c1=O`, the cell number change was -8.08%. Moreover, the AC50 under setting [1] was 4.61 µM [falling, single point]. Consider `COC(=O)[C@]1(Cc2ccccc2)N[C@H](c2ccc(-c3ccccc3)cc2)[C@@H]2C(=O)N(C)C(=O)[C@@H]21`, for which the cell number change turned out to be 18.5%.

As to `NS(=O)(=O)c1ccc(CCNC(=O)c2cccc3ccccc23)cc1`, the cell number change turned out to be 8.4%. Under setting [1], the AC50 was 0.231 µM [rising, full curve, poor fit]. `CCOC(=O)C1CCCN(C(=O)CSc2ccccc2)C1` (stereo not drawn): the cell number change was -3.16%. The AC50 under setting [1] is 20.6 µM [falling, partial curve, poor fit]. Turning to `COc1cccc(C2CC(c3c(-c4ccccc4)c4cc(Cl)ccc4[nH]c3=O)=NN2S(C)(=O)=O)c1OC` (stereo not drawn), the cell number change was -29.9%. The AC50 under setting [2] is 2.91 µM [rising, single point]. As for `CCCCN(C(=O)CSc1n[nH]c(-c2ccc(C)cc2)n1)c1c(N)n(CCCC)c(=O)[nH]c1=O`, the cell number change was 2.94%. In addition, the AC50 under setting [1] is 20.6 µM [falling, partial curve, poor fit]. As for `CCOC(=O)c1c(-c2ccc(C)s2)csc1NC(=O)c1cccs1`, the cell number change came to 67.6%. In addition, the AC50 under setting [2] was 0.146 µM [rising, full curve, poor fit]. For the same compound, under setting [1], the AC50 was 1.03 µM [rising, full curve]. Consider `O=C(NC1CCCCC1)c1cc(Cl)nc2ccccc12`, for which, under setting [1], the AC50 was 29.1 µM [falling, single point].

Regarding `O=C(CCC(=O)Nc1ccccc1)NNC(=O)CCc1ccccc1`, the cell number change was -19.2%. On to `O=C(NCCOc1ccccc1Cl)c1cc(F)c(F)cc1Cl`, for which the cell number change is -0.972%. The AC50 under setting [1] was 4.61 µM [falling, single point]. `COc1ccc(Nc2cc(Nc3ccc(OC)cc3)ncn2)cc1`: the AC50 under setting [1] was 0.58 µM [rising, single point].

With `Cc1[nH]c(=O)nc2c1CCC2`, the cell number change was -0.456%. The AC50 under setting [2] was 2.06 µM [rising, single point].
